Source: patent US20030235634A1, “Extraction of non-polar isothiocyanates from plants and dietary supplements containing same” (ACCESS BUSINESS GROUP INTERNATIONAL LLC., priority 2002, published 2003)
Some results were stated once for a whole list of compounds, not compound by compound.

Test: Dissolution of purchased BITC and PEITC in safflower oil (how much can be stored in the oil)
Type: physicochemical
Conditions: for amount successfully dissolved in 1 ml of safflower oil: in 1 ml safflower oil, BITC and PEITC together in one composition
From the text: BITC and PEITC were purchased from Aldrich (Sigma-Aldrich, Milwaukee, Wis.) and dissolved in safflower oil to determine how much of the non-polar isothiocyanates could be stored in the oil.

SMILES | amount successfully dissolved in 1 ml of safflower oil | concentration of non-polar isothiocyanate in the safflower oil composition
S=C=NCc1ccccc1 [BITC, Benzyl isothiocyanate] | Over 100 mg | greater than 100,000 ppm
S=C=NCCc1ccccc1 [PEITC, phenethyl isothiocyanate] | Over 100 mg | greater than 100,000 ppm
